# The other results are listed elsewhere or left out.
# By UniProt entry, the sequences of proteins in these tests, tags left out. Where a name states a change or a piece, a line headed by the entry shows the natural chain unless it says otherwise.
# UniProt O60264, whole entry, looked up: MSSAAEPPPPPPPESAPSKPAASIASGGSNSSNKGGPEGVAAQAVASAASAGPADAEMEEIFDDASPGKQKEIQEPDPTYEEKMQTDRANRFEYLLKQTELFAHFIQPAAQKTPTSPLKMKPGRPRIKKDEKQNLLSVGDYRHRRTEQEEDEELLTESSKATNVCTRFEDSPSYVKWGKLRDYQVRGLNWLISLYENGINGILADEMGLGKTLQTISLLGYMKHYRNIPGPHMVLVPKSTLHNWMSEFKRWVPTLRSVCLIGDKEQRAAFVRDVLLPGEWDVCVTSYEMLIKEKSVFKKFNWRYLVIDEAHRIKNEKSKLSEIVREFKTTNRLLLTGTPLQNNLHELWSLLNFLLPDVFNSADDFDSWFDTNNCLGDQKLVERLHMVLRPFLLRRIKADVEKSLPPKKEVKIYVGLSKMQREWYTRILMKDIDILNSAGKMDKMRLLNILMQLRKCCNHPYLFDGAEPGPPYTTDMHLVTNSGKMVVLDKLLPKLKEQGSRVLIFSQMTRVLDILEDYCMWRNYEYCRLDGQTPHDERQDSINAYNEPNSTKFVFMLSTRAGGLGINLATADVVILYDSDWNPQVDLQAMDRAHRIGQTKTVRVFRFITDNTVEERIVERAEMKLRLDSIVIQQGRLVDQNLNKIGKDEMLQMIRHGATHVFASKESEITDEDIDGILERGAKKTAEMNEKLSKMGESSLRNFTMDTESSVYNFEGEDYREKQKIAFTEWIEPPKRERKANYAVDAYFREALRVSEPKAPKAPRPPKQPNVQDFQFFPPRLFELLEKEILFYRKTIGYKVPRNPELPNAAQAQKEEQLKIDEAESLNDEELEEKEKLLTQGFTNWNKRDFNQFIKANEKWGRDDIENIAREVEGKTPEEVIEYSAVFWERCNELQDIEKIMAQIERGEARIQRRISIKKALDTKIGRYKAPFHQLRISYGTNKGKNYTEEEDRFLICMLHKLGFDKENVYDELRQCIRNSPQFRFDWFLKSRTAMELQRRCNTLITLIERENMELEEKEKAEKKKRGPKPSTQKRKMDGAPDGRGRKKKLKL
# UniProt Q9BX66: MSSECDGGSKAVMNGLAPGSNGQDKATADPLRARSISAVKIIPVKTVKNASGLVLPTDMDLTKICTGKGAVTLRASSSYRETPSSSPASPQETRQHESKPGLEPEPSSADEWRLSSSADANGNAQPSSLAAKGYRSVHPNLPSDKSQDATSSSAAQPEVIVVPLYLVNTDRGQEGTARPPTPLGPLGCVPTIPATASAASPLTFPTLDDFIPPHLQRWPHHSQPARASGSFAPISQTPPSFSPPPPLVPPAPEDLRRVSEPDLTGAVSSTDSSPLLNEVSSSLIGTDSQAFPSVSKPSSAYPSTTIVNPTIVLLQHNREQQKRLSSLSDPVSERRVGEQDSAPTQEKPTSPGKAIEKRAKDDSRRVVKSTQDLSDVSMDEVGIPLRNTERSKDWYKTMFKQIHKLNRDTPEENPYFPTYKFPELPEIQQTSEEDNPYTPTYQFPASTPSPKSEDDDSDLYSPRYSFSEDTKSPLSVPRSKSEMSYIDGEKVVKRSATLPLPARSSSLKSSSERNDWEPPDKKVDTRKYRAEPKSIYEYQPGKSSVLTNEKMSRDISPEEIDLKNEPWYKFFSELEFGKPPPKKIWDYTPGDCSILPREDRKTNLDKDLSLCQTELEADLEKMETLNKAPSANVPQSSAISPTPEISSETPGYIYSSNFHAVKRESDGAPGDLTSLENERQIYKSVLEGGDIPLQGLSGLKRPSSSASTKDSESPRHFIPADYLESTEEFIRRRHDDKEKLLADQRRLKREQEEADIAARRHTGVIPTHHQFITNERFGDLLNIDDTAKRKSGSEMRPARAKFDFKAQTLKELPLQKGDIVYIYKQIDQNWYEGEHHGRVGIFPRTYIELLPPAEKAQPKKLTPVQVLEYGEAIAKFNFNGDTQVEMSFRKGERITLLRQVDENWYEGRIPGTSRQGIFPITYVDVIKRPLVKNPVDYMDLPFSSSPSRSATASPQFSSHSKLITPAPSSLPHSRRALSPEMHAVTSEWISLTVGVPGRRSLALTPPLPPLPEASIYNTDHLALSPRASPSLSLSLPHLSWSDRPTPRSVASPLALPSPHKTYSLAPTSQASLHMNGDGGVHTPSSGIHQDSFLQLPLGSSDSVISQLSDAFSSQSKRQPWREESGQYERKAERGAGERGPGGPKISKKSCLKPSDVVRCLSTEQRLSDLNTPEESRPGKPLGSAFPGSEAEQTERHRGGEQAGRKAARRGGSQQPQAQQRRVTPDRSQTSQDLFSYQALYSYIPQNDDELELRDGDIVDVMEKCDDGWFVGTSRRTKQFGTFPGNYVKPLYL
# UniProt Q9NRS6: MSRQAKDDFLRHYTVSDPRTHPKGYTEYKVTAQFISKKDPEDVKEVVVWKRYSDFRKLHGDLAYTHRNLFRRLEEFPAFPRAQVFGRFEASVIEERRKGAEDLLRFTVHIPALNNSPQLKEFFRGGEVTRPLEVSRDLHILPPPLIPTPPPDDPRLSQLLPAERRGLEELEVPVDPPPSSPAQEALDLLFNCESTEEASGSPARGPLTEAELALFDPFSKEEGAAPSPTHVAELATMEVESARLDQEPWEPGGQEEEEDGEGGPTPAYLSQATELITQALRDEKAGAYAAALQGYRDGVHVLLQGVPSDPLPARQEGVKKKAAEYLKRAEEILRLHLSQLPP
# UniProt P09234, whole entry, looked up: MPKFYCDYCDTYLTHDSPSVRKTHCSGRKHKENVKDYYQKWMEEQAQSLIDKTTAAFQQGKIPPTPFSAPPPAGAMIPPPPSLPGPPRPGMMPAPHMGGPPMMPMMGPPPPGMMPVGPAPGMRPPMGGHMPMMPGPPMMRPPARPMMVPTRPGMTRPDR
# UniProt O95347, whole entry, looked up: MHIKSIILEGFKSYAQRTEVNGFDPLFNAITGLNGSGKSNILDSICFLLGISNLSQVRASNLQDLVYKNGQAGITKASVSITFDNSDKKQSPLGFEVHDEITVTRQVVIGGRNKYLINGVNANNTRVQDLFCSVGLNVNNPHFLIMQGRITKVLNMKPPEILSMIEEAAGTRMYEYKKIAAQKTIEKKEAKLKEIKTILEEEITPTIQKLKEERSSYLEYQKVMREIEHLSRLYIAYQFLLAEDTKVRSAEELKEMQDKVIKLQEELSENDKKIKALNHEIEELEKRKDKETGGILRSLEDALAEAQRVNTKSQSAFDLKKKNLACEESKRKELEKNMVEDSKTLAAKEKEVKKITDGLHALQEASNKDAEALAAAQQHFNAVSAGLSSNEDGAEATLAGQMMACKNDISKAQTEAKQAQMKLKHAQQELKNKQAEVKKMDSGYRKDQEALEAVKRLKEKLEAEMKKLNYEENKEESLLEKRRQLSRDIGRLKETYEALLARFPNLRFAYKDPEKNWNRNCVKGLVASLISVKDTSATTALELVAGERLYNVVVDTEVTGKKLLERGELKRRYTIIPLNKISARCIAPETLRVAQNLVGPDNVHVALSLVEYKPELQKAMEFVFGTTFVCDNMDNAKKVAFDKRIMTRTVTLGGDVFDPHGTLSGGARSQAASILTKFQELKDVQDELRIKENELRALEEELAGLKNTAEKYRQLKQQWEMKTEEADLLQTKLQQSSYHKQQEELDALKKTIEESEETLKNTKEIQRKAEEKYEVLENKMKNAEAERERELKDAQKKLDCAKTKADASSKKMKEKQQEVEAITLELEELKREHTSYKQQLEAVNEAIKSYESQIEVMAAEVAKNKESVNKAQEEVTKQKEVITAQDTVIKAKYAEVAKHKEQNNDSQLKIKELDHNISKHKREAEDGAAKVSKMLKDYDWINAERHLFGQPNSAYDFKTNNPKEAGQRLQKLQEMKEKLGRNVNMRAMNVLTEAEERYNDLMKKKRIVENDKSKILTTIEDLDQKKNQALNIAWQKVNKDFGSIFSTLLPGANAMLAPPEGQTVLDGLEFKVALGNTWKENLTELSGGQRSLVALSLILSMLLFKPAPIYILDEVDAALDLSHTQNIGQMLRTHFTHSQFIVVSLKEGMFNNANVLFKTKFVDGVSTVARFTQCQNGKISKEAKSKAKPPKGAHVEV
# UniProt Q9Y5X1: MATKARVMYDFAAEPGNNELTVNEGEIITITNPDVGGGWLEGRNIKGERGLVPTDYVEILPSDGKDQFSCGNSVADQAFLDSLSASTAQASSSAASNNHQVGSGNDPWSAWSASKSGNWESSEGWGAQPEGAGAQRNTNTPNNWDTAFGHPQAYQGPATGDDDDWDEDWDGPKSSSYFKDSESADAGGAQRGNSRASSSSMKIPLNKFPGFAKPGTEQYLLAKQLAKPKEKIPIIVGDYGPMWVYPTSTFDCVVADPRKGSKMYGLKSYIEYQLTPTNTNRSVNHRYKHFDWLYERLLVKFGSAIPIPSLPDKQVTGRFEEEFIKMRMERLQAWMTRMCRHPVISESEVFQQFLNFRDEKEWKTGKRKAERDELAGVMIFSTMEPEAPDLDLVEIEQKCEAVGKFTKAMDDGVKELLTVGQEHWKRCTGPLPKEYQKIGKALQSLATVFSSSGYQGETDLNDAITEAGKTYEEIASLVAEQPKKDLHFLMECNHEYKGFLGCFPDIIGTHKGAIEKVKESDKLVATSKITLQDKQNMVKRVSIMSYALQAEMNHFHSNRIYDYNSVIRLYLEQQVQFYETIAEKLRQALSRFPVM
# UniProt P08579, whole entry, looked up: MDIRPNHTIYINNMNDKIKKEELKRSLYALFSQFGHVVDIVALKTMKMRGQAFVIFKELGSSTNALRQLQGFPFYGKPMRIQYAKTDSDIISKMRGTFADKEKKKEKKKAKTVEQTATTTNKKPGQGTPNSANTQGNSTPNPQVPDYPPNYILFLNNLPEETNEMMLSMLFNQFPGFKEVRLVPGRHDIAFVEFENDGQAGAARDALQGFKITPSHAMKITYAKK
# UniProt P62316, whole entry, looked up: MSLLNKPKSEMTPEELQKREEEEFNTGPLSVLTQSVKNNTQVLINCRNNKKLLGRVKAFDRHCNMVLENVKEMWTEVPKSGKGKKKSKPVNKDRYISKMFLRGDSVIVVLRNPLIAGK
# UniProt Q7KZF4: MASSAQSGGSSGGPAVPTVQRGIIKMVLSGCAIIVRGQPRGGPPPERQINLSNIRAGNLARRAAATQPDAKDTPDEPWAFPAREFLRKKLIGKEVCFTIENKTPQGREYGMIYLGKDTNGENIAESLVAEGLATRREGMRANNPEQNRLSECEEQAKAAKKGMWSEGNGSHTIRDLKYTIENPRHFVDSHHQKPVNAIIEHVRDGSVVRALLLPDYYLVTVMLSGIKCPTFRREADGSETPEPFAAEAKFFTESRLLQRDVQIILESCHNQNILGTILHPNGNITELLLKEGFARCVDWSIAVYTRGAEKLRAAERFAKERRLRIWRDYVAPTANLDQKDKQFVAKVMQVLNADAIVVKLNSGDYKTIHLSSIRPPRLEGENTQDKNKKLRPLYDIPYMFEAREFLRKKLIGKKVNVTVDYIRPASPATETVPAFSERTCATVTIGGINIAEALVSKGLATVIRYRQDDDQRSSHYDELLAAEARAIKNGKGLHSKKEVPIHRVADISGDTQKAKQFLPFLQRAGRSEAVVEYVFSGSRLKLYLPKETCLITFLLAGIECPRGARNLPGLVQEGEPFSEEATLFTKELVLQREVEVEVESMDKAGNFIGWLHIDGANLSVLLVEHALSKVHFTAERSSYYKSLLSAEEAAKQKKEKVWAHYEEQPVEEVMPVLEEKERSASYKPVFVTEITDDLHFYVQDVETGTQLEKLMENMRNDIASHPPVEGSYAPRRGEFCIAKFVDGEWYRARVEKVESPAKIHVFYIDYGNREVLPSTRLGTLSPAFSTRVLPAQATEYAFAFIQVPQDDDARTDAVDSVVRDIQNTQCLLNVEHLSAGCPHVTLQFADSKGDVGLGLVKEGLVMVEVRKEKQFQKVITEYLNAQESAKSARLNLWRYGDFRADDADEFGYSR
# UniProt Q92925, whole entry, looked up: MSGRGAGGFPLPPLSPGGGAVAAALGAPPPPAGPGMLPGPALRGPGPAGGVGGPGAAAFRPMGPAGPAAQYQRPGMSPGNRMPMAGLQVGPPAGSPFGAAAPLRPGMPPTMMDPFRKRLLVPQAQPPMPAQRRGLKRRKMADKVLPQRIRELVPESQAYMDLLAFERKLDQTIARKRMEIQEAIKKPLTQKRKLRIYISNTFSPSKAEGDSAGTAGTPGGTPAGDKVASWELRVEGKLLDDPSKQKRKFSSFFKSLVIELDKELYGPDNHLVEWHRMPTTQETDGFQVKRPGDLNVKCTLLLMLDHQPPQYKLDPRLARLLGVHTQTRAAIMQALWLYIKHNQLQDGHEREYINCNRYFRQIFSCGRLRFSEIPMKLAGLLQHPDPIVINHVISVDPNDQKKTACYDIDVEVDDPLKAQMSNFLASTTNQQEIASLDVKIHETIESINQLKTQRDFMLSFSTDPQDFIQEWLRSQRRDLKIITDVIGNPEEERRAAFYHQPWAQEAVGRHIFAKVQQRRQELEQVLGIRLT
# UniProt P55769: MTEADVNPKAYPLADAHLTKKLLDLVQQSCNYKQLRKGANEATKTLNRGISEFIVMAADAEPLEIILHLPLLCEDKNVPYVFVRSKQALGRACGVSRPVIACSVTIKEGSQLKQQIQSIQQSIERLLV
# Legend:
# Assay in all cases: log2 fold change, soluble protein after heating vs DMSO (PISA); higher = thermal stabilisation; K562 lysate, 10 uM; active = over 0.2 and 3.5 SD of the protein, either way, in both replicates (recomputed)
# [1] = compound: CS(=O)(=O)CCNCc1ccc(-c2ccc3ncnc(Nc4ccc(OCc5cccc(F)c5)c(Cl)c4)c3c2)o1 [lapatinib]
# In short: (§1)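 Quantification was by TMTpro 16plex LC-MS/MS with equalised channel sums, applied to the supernatant after 21,000xg for 90 min. Samples were crude K562 extract at 1 mg/mL protein in PBS pH 7.4 with 1 mM MgCl2, treated with 10 μM compound for 30 min, heated for 3 min across 48°C-58°C, pooled and brought to 0.5% NP-40 at 4°C. Values are log-two fold changes in thermal stability relative to solvent controls, from duplicates.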
# [2] = compound: CS(=O)(=O)N1CCN(Cc2cc3nc(-c4cccc5[nH]ncc45)nc(N4CCOCC4)c3s2)CC1 [pictilisib]
# In short: as §1
# [3] = compound: C[C@@H](Oc1cc(-c2cnn(C3CCNCC3)c2)cnc1N)c1c(Cl)ccc(F)c1Cl [crizotinib]
# In short: as §1
# [4] = compound: C[C@H](C1=CC=C(C=C1)C(=O)NC2=C3C=CNC3=NC=C2)N
# In short: as §1
# [5] = compound: C[C@H](Nc1ncnc2nc[nH]c12)c1cc2cccc(Cl)c2c(=O)n1-c1ccccc1 [duvelisib]
# In short: as §1
# [6] = compound: Cc1cc(Nc2cc(CN3CCOCC3)c3nc(C)c(Cc4ccc(Cl)cc4F)n3n2)n[nH]1 [gandotinib]
# In short: as §1
# [7] = compound: Cc1cc(Nc2cc(N3CCN(C)CC3)nc(Sc3ccc(NC(=O)C4CC4)cc3)n2)n[nH]1 [tozasertib]
# In short: as §1
# [8] = compound: Cc1ccc(-n2nc(C(C)(C)C)cc2NC(=O)Nc2ccc(OCCN3CCOCC3)c3ccccc23)cc1 [doramapimod]
# In short: as §1
# [9] = compound: Cc1ccc(NC(=O)c2ccc(CN3CC[C@H](N(C)C)C3)c(C(F)(F)F)c2)cc1Nc1nccc(-c2cncnc2)n1 [bafetinib]
# In short: as §1
# [10] = compound: Cc1cccc(CC(=O)N2CCc3c2ccc(-c2cn(C)c4ncnc(N)c24)c3F)n1
# In short: as §1
# [11] = compound: Cc1cn(-c2cc(NC(=O)c3ccc(C)c(Nc4nccc(-c5cccnc5)n4)c3)cc(C(F)(F)F)c2)cn1 [nilotinib]
# In short: as §1
# [12] = compound: Cc1nc(Nc2n[nH]c3c2CN(C(=O)N[C@H](CN(C)C)c2ccccc2)C3(C)C)c2sccc2n1
# In short: as §1
# [13] = compound: Cc1nc(Nc2ncc(C(=O)Nc3c(C)cccc3Cl)s2)cc(N2CCN(CCO)CC2)n1 [dasatinib]
# In short: as §1
# [14] = compound: Cc1ncc(-c2ccnc(Nc3ccc(S(C)(=O)=O)cc3)n2)n1C(C)C
# In short: as §1
# [15] = compound: Cn1cc(-c2ccc3c(c2)CCN3C(=O)Cc2cccc(C(F)(F)F)c2)c2c(N)ncnc21
# In short: as §1
# [16] = compound: Cn1cc(CNCC2CCN(c3ncc(C(=O)NO)cn3)CC2)c2ccccc21 [quisinostat]
# In short: as §1
# [17] = compound: Cn1cncc1[C@@](N)(c1ccc(Cl)cc1)c1ccc2c(c1)c(-c1cccc(Cl)c1)cc(=O)n2C [tipifarnib]
# In short: as §1
# [18] = compound: NC(=O)Nc1cc(-c2cccc(F)c2)sc1C(=O)N[C@H]1CCCNC1
# In short: as §1
# [19] = compound: NC(=O)c1cnc(N[C@@H]2CCCC[C@@H]2N)nc1Nc1cccc(-n2nccn2)c1
# In short: as §1
# [20] = compound: NC1(c2ccc(-c3nc4ccn5c(=O)[nH]nc5c4cc3-c3ccccc3)cc2)CCC1
# In short: as §1
Target,log2 fold change [1],log2 fold change [2],log2 fold change [3],log2 fold change [4],log2 fold change [5],log2 fold change [6],log2 fold change [7],log2 fold change [8],log2 fold change [9],log2 fold change [10],log2 fold change [11],log2 fold change [12],log2 fold change [13],log2 fold change [14],log2 fold change [15],log2 fold change [16],log2 fold change [17],log2 fold change [18],log2 fold change [19],log2 fold change [20]
SMARCA5 (UniProt O60264),inactive: -0.022,inactive: -0.041,inactive: 0.009,inactive: -0.016,inactive: 0.053,inactive: -0.066,inactive: 0.011,inactive: -0.009,inactive: -0.067,inactive: 0.026,inactive: -0.059,inactive: 0.03,inactive: -0.107,inactive: 0.006,inactive: 0.067,inactive: 0.024,inactive: -0.003,inactive: 0.034,inactive: 0.015,inactive: -0.01
SORBS1 isoform 8 (UniProt Q9BX66),inactive: 0.031,inactive: 0.021,inactive: 0.029,inactive: 0.015,inactive: -0.018,inactive: 0.038,inactive: 0.022,inactive: 0.029,inactive: 0.011,inactive: -0.005,inactive: 0.015,inactive: -0.012,inactive: 0.008,inactive: 0.029,inactive: 0.017,inactive: -0.02,inactive: 0.029,inactive: -0.019,inactive: 0.023,inactive: -0.027
SNX15 (UniProt Q9NRS6),inactive: -0.006,inactive: -0.001,inactive: -0.014,inactive: -0.005,inactive: 0.005,inactive: -0.016,inactive: 0.022,inactive: -0.021,inactive: 0.011,inactive: 0.006,inactive: -0.007,inactive: 0.047,inactive: -0.032,inactive: -0.006,inactive: 0.058,inactive: -0.076,inactive: 0.027,inactive: 0.011,inactive: -0.001,inactive: 0.065
SNRPC (UniProt P09234),inactive: 0.029,inactive: -0.039,inactive: 0,inactive: 0.001,inactive: 0.013,inactive: 0.025,inactive: -0.001,inactive: 0.038,inactive: 0.03,inactive: 0.015,inactive: -0.012,inactive: 0.043,inactive: 0.007,inactive: 0.022,inactive: 0.023,inactive: -0.028,inactive: 0.024,inactive: 0.041,inactive: 0.012,inactive: 0.029
SMC2 (UniProt O95347),inactive: -0.019,inactive: 0.013,inactive: -0.028,inactive: 0.121,inactive: -0.009,inactive: -0.177,inactive: 0.014,inactive: 0.037,inactive: -0.02,inactive: -0.059,inactive: -0.017,inactive: -0.005,inactive: -0.036,inactive: 0.007,inactive: 0.025,inactive: -0.023,inactive: 0.024,inactive: 0.034,inactive: 0.017,inactive: -0.003
SNRPB isoform 3 (UniProt P14678),inactive: -0.013,inactive: -0.065,inactive: 0.056,inactive: -0.041,inactive: 0.019,inactive: 0.124,inactive: -0.068,inactive: -0.05,inactive: 0.11,inactive: 0.044,inactive: 0.065,inactive: -0.042,inactive: 0.031,inactive: -0.035,inactive: -0.023,inactive: 0.095,inactive: 0.043,inactive: -0.035,inactive: -0.052,inactive: 0.034
SNX9 (UniProt Q9Y5X1),inactive: -0.001,inactive: -0.014,inactive: 0.003,inactive: -0.006,inactive: -0.017,inactive: -0.033,inactive: 0.002,inactive: -0.003,inactive: -0.031,inactive: -0.005,inactive: -0.006,inactive: 0.003,inactive: -0.001,inactive: 0.012,inactive: 0.002,inactive: 0.007,inactive: 0.023,inactive: -0.007,inactive: -0.028,inactive: 0.007
SNRPB2 (UniProt P08579),inactive: -0.023,inactive: -0.011,inactive: 0.013,inactive: 0.021,inactive: 0.014,inactive: 0.012,inactive: -0.036,inactive: -0.023,inactive: -0.012,inactive: -0.017,inactive: -0.013,inactive: 0.031,inactive: 0,inactive: 0.003,inactive: 0.006,inactive: 0.013,inactive: 0.012,inactive: 0.018,inactive: -0.01,inactive: -0.015
SNRPD2 (UniProt P62316),inactive: 0.017,inactive: -0.01,inactive: 0.016,inactive: -0.055,inactive: 0.018,inactive: 0.057,inactive: -0.014,inactive: -0.009,inactive: 0.078,inactive: 0.052,inactive: 0.014,inactive: 0.015,inactive: 0.024,inactive: 0.015,inactive: -0.02,inactive: 0.007,inactive: 0.014,inactive: -0.027,inactive: 0,inactive: -0.002
SND1 (UniProt Q7KZF4),inactive: -0.008,inactive: -0.012,inactive: -0.034,inactive: 0.077,inactive: 0.008,inactive: -0.108,inactive: 0,inactive: 0.034,inactive: -0.028,inactive: -0.009,inactive: -0.008,inactive: -0.011,inactive: -0.028,inactive: -0.024,inactive: 0.038,inactive: -0.033,inactive: -0.003,inactive: 0.05,inactive: -0.007,inactive: -0.017
SMTN isoform 6 (UniProt P53814),inactive: 0.103,inactive: -0.042,inactive: -0.012,inactive: -0.06,inactive: 0.033,inactive: 0.032,inactive: 0.019,inactive: 0.006,inactive: 0.059,inactive: 0.028,inactive: -0.011,inactive: 0.134,inactive: -0.055,inactive: -0.022,inactive: 0.031,inactive: -0.065,inactive: -0.019,inactive: 0.021,inactive: -0.005,inactive: 0.089
SMC5 (UniProt Q8IY18),inactive: -0.014,inactive: -0.013,inactive: -0.027,inactive: -0.043,inactive: 0.054,inactive: 0.023,inactive: -0.008,inactive: -0.017,inactive: -0.008,inactive: 0.071,inactive: 0.001,inactive: 0.009,inactive: -0.015,inactive: 0.004,inactive: 0.006,inactive: -0.027,inactive: -0.041,inactive: 0.025,inactive: 0.006,inactive: 0.015
SMARCD2 (UniProt Q92925),inactive: -0.027,inactive: -0.051,inactive: -0.004,inactive: -0.069,inactive: 0.032,inactive: -0.002,inactive: 0.027,inactive: -0.034,inactive: 0,inactive: 0.046,inactive: 0.018,inactive: -0.018,inactive: -0.06,inactive: 0.01,inactive: 0.017,inactive: 0.01,inactive: 0.001,inactive: 0.017,inactive: -0.015,inactive: 0.043
SNCA (UniProt P37840),inactive: 0.137,inactive: -0.014,inactive: 0.127,inactive: -0.101,inactive: -0.005,active: 0.456,inactive: 0.016,inactive: 0.196,inactive: 0.098,inactive: 0.073,inactive: 0.148,inactive: 0.075,inactive: 0.128,inactive: -0.032,inactive: 0.019,inactive: -0.031,inactive: 0.159,inactive: -0.112,inactive: -0.049,inactive: 0
SP100 isoform 4 (UniProt P23497),inactive: -0.02,inactive: 0.002,inactive: 0.013,inactive: 0.032,inactive: 0.04,inactive: 0.02,inactive: -0.002,inactive: -0.007,inactive: -0.011,inactive: -0.014,inactive: -0.001,inactive: 0.022,inactive: 0.023,inactive: -0.032,inactive: 0.006,inactive: -0.027,inactive: -0.019,inactive: -0.022,inactive: 0.024,inactive: 0.035
SNU13 (UniProt P55769),inactive: 0.041,inactive: 0.022,inactive: -0.007,inactive: 0.049,inactive: 0.006,inactive: -0.026,inactive: -0.015,inactive: -0.016,inactive: 0.007,inactive: -0.015,inactive: -0.007,inactive: 0.015,inactive: 0.017,inactive: 0.044,inactive: -0.012,inactive: -0.013,inactive: 0.04,inactive: 0.008,inactive: -0.034,inactive: 0.041

# An excerpt of these results, tab-delimited.
Target	log2 fold change [1]	log2 fold change [2]	log2 fold change [3]	log2 fold change [4]	log2 fold change [5]	log2 fold change [6]	log2 fold change [7]	log2 fold change [8]	log2 fold change [9]	log2 fold change [10]	log2 fold change [11]	log2 fold change [12]	log2 fold change [13]	log2 fold change [14]	log2 fold change [15]	log2 fold change [16]	log2 fold change [17]	log2 fold change [18]	log2 fold change [19]	log2 fold change [20]
SP100 isoform 4 (UniProt P23497)	inactive: -0.02	inactive: 0.002	inactive: 0.013	inactive: 0.032	inactive: 0.04	inactive: 0.02	inactive: -0.002	inactive: -0.007	inactive: -0.011	inactive: -0.014	inactive: -0.001	inactive: 0.022	inactive: 0.023	inactive: -0.032	inactive: 0.006	inactive: -0.027	inactive: -0.019	inactive: -0.022	inactive: 0.024	inactive: 0.035
SNU13 (UniProt P55769)	inactive: 0.041	inactive: 0.022	inactive: -0.007	inactive: 0.049	inactive: 0.006	inactive: -0.026	inactive: -0.015	inactive: -0.016	inactive: 0.007	inactive: -0.015	inactive: -0.007	inactive: 0.015	inactive: 0.017	inactive: 0.044	inactive: -0.012	inactive: -0.013	inactive: 0.04	inactive: 0.008	inactive: -0.034	inactive: 0.041

# From the supplement of paper PMC10849652
